# Measured values: patent US20060019252A1
# Where a chain is given by its changes, count along the chain named. Names and notes keep the numbering of the source. These are yes or no findings as the source states them, for the method shown. For part of these data: Binding seen in cells or lysates may run through a third protein. Some entries that bind do so weakly or less than the wild type. For part of these data: Tags and fused reporters may be left off the sequences shown.
# T1: myc-tagged SNW1 protein (human) (UniProt Q13573)
# T1 sequence (looked up): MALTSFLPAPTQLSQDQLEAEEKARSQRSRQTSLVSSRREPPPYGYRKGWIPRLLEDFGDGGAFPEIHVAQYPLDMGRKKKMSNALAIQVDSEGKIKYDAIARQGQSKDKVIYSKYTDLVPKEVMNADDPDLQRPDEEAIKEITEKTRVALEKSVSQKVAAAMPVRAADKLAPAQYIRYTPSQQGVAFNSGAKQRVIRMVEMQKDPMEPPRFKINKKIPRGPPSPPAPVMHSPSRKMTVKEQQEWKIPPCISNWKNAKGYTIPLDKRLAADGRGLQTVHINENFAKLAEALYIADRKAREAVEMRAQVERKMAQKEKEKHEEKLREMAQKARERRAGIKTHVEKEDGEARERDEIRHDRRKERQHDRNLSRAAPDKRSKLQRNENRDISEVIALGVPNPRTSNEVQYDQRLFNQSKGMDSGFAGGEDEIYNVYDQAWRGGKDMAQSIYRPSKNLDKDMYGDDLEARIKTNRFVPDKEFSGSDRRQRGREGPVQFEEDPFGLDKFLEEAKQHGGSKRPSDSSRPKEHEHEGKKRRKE
# T2: HA-tagged stathmin protein (human) (UniProt P16949)
# T2 sequence (looked up): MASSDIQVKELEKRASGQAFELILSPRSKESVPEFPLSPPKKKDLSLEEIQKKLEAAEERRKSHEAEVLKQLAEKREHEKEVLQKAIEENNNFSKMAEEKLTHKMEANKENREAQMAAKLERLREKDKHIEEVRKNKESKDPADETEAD
# T3: PPIL1 bait of the bacterial two-hybrid system (pBT-PPIL1) (human)
# T3 sequence: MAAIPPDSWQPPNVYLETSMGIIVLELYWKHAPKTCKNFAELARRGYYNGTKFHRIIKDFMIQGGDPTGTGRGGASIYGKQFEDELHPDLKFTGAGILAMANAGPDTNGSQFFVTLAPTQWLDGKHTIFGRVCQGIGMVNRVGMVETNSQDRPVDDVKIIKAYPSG
# T4: stathmin target clone of the bacterial two-hybrid system (pTRG-STMN) (human) (UniProt P16949)
# T4 sequence (looked up): T2 sequence (looked up)
# T5: FLAG-tagged PPIL1 protein (human)
# T5 sequence: T3 sequence
# B1: FLAG-tagged PPIL1 protein (enzyme, not shown: small tags and cut ends)
# chain: T3 sequence
# B2: stathmin target clone of the bacterial two-hybrid system (pTRG-STMN) (protein, human, UniProt P16949 1-149, looked up, not shown: large carriers)
# chain: T2 sequence (looked up)
# B3: PPIL1 bait of the bacterial two-hybrid system (pBT-PPIL1) (enzyme, not shown: large carriers)
# chain: T3 sequence
# B4: stathmin deletion mutant (Del3) lacking amino acids 1-43 (protein, not shown: small tags and cut ends)
# chain: MDLSLEEIQKKLEAAEERRKSHEAEVLKQLAEKREHEKEVLQKAIEENNNFSKMAEEKLTHKMEANKENREAQMAAKLERLREKDKHIEEVRKNKESKDPADETEAD
# B5: stathmin mutant containing amino acids 1 to 61 (protein, not shown: small tags and cut ends)
# chain: MASSDIQVKELEKRASGQAFELILSPRSKESVPEFPLSPPKKKDLSLEEIQKKLEAAEERR
# B6: stathmin-S38A mutant (protein, human, UniProt P16949 1-149, looked up, not shown: small tags and cut ends)
# chain: T2 sequence (looked up) with S38A
# Assays:
# [1] = biological target: T1, myc-tagged SNW1 protein (human); assay: co-immunoprecipitation from co-transfected COS7 cells (anti c-Myc or anti FLAG), immunoblot
# [2] = biological target: T2, HA-tagged stathmin protein (human); assay: co-immunoprecipitation from co-transfected COS7 cells, immunoblot
# [3] = biological target: T1, myc-tagged SNW1 protein (human); assay: as above
# [4] = biological target: T2, HA-tagged stathmin protein (human); assay: co-immunoprecipitation from COS7 cells (FIG. 23B)
# [5] = biological target: T3, PPIL1 bait of the bacterial two-hybrid system (pBT-PPIL1) (human); assay: bacterial two-hybrid (BacterioMatch)
# [6] = biological target: T4, stathmin target clone of the bacterial two-hybrid system (pTRG-STMN) (human); assay: two-hybrid system (FIG. 23A)
# [7] = biological target: T5, FLAG-tagged PPIL1 protein (human); assay: co-immunoprecipitation from transfected COS7 cells, immunoblot
# [8] = biological target: T5, FLAG-tagged PPIL1 protein (human); assay: co-precipitation from transfected cells, immunoblot
binder,measurement,setting,value
B1,binding,[1],binds
same,binding,[2],binds
same,binding,[3],binds
same,binding,[4],binds
B2,binding,[5],binds
B3,binding,[6],binds
B4,binding,[7],binds
B5,binding,[7],binds
B6,binding,[8],binds
